No constants are given. Whether binding was seen depends on the method and setting. In cells and extracts the contact can be indirect. Some entries that bind do so weakly or less than the wild type. Tags and fused reporters may be left off the sequences shown. Each block holds one binder with its values, some of them ahead of it.
Assays:
[1] = molecular target: T1, HA-tagged porcine Riplet (pRiplet) (porcine) (UniProt F1RKW3); test: co-IP; HEK293T cells cotransfected for 28 h; same lysis buffer; precipitated at 4°C with anti-HA affinity gel; western blot
T1 sequence: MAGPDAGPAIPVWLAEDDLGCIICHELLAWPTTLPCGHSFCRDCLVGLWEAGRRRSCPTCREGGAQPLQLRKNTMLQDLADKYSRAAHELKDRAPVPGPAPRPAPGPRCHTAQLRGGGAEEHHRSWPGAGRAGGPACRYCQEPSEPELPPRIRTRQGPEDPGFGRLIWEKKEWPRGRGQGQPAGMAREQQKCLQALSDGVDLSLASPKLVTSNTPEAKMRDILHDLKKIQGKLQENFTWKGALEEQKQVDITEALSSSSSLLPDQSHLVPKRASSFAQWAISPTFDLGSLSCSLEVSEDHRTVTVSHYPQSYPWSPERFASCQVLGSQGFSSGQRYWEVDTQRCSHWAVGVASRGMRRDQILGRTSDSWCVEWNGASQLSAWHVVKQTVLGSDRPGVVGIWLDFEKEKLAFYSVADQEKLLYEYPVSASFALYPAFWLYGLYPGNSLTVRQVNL

[2] = molecular target: T2, Flag-tagged porcine retinoic acid-inducible gene I (pRIG-I) (porcine) (UniProt Q9GLV6); test: co-IP; HEK293T cells cotransfected for 28 h; lysis buffer 50 mM Tris-HCl pH 7.4, 150 mM NaCl, 1% NP-40, 10% glycerin, 0.1% SDS, 2 mM Na2EDTA; precipitated at 4°C with anti-Flag affinity gel; western blot
T2 sequence: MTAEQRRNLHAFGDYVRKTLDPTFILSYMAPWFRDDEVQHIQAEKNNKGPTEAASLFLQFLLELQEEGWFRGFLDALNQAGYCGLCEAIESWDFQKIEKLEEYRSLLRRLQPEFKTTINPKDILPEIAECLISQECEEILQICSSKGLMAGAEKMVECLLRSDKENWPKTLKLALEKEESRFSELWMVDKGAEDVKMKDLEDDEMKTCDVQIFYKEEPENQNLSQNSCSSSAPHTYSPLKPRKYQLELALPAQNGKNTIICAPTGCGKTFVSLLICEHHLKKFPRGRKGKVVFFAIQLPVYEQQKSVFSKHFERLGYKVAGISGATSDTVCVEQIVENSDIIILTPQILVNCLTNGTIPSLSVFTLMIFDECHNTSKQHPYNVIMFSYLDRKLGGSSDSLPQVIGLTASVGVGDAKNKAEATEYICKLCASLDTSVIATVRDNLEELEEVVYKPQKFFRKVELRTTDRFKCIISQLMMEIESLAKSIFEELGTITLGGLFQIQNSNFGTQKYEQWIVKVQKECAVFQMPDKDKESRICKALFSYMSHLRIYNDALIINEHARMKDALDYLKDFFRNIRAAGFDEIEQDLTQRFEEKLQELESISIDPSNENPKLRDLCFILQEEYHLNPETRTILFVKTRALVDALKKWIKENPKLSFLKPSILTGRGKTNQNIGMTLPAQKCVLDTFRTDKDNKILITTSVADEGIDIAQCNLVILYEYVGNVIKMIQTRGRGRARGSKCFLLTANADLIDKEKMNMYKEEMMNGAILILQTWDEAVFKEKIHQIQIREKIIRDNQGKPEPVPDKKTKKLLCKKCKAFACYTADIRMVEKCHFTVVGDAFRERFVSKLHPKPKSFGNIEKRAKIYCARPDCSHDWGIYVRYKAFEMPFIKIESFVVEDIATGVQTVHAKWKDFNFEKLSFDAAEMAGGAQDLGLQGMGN

- binding [1]: binds
B1: Flag-tagged porcine retinoic acid-inducible gene I (pRIG-I) (protein, UniProt Q9GLV6 1-940)
chain: T2 sequence

- binding [2]: binds
B2: HA-tagged porcine Riplet (pRiplet) (protein, UniProt F1RKW3 1-454)
chain: T1 sequence
